No constants are given. Whether binding was seen depends on the method and setting. Some entries that bind do so weakly or less than the wild type.

By UniProt entry, the sequences of proteins in these tests, tags left out. Residues count along the entry.
UniProt P78556, residues 27-96: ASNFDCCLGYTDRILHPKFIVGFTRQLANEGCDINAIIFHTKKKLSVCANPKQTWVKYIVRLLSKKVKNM

The test deals with T1, human CC chemokine receptor 6 (huCCR6) (human) (UniProt P51684).
T1 sequence: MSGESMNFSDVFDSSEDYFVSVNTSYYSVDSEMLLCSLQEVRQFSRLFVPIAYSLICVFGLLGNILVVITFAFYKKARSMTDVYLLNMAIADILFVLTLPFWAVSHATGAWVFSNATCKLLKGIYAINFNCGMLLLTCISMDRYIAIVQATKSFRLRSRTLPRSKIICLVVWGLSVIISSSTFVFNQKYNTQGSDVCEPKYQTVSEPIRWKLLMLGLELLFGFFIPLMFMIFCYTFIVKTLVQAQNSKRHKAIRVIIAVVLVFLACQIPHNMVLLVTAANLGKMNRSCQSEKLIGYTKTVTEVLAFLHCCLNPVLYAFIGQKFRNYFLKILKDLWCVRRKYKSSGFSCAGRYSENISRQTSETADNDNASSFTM
Briefly: flow cytometry on cells; competitive binding: 100,000 huCCR6-CHO cells pre-incubated with unlabeled huCCL20 (8 μg/mL) for 15 min at 4°C in 100 μL binding buffer (PBS, 0.5% BSA, 0.1% NaN3), then AF647-huCCL20 at 80 ng/mL for 30 min at 4°C; binding without competitor set to 100%; only the binder purified. In general terms: Flow cytometry measures light scatter and fluorescence of single cells or particles in a stream.

Take “Alexa Fluor 647-conjugated huCCL20 (from UniProt P78556 27-96) (ligand)”: the binding entry is “binds”.
“huCCL20 (unlabeled) (from UniProt P78556 27-96) (ligand)”: the binding entry is “binds”.

Values taken from paper PMC4919008.
